Results: US20200299408A1
These are yes or no findings as the source states them, for the method shown. Some entries that bind do so weakly or less than the wild type.

How the values were obtained:
WT GLN = assay: phage ELISA: anti-CD3 antibody coated on the plate, dilution series of M13 phage displaying the CD3εγ variant, anti-M13-HRP, OD A450 (p-1389); [phage] axis 10^-3 to 10^0 without unit
WT pyroglu = assay: as above

B1: hu38E4.v1 Fab (Fab, V domains shown)
VH: EVQLVQSGAEVKKPGASVKVSCKASGFTFTSYYIHWVRQAPGQGLEWIGWIYPENDNTKYNEKFKDRVTITADTSTSTAYLELSSLRSEDTAVYYCARDGYSRYYFDYWGQGTLVTVSS
VL: DIVMTQSPDSLAVSLGERATINCKSSQSLLNSRTRKNYLAWYQQKPGQSPKLLIYWTSTRKSGVPDRFSGSGSGTDFTLTISSLQAEDVAVYYCKQSFILRTFGQGTKVEIK
binding (WT GLN): binds | binding (WT pyroglu): binds
